From the supplement of paper PMC11732987, “Enantioselective OTUD7B fragment discovery through chemoproteomics screening and high-throughput optimisation” (Communications Chemistry, 2025)
The other results are listed elsewhere or left out. The data scatter; read single values as rough.

By UniProt entry, the sequences of proteins in these tests, tags left out. Where a name states a change or a piece, a line headed by the entry shows the natural chain unless it says otherwise. Residues count along the entry.
UniProt Q9UPW6: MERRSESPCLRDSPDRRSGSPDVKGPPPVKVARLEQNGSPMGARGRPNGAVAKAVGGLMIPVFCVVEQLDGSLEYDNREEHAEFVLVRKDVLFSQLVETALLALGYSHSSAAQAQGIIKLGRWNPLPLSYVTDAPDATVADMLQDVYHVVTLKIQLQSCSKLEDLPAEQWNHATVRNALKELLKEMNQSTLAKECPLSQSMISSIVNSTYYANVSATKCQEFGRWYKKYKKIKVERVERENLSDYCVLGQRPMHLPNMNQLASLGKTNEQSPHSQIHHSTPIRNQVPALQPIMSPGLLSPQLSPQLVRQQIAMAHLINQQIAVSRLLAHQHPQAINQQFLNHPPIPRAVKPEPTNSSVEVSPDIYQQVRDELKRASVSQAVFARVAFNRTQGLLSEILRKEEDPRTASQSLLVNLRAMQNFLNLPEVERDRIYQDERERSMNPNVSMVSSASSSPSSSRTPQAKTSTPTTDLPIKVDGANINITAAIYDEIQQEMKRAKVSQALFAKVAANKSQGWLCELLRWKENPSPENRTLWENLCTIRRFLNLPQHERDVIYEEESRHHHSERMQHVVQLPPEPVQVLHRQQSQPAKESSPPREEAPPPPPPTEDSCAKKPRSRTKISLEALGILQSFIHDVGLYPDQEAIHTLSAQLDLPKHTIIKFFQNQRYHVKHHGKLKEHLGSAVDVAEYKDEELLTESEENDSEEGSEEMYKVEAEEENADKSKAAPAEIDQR
UniProt Q8WTS6, 196-215: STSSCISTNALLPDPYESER
UniProt Q9H0K1: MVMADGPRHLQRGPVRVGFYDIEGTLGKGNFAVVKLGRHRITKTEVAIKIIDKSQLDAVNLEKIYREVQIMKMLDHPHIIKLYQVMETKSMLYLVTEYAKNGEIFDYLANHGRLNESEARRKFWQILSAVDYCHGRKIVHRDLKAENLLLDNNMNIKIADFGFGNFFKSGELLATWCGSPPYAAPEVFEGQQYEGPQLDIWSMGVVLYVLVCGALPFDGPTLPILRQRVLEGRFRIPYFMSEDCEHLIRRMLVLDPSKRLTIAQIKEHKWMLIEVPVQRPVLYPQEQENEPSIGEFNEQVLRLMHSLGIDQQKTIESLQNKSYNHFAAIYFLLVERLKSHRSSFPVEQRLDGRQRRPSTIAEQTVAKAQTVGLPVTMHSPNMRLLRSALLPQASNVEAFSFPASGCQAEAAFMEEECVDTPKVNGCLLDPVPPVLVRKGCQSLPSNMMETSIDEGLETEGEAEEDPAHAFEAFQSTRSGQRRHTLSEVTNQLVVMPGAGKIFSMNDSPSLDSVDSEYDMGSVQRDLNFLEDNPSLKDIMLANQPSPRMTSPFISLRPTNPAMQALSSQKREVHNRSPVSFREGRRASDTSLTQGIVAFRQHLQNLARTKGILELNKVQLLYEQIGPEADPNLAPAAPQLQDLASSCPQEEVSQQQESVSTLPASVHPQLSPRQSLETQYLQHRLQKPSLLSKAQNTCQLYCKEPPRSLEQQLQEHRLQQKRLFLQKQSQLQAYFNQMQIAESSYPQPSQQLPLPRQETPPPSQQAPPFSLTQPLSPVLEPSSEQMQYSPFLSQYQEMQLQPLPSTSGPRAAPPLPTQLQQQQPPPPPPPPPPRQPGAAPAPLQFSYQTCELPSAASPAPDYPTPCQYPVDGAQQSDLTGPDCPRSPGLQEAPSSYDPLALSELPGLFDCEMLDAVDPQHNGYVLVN
UniProt Q15437: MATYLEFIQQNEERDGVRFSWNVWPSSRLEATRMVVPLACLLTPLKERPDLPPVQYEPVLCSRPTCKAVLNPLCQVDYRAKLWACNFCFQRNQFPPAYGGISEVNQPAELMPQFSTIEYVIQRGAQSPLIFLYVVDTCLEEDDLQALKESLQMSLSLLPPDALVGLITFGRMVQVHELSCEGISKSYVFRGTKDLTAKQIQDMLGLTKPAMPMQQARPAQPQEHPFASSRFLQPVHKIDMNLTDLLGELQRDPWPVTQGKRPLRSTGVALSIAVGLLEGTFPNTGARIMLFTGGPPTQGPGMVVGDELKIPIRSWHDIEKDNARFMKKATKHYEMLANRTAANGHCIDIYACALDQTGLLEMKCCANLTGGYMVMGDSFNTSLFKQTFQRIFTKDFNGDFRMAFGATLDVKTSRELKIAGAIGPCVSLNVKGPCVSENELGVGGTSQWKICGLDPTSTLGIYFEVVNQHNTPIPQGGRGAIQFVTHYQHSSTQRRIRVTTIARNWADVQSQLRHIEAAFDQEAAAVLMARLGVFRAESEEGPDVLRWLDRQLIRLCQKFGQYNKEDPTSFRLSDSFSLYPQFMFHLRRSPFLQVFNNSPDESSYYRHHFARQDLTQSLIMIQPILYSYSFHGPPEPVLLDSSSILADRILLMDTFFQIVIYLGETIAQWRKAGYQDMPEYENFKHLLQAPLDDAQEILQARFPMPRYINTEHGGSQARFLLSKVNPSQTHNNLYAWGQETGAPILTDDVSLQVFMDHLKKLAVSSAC
UniProt Q96HI0: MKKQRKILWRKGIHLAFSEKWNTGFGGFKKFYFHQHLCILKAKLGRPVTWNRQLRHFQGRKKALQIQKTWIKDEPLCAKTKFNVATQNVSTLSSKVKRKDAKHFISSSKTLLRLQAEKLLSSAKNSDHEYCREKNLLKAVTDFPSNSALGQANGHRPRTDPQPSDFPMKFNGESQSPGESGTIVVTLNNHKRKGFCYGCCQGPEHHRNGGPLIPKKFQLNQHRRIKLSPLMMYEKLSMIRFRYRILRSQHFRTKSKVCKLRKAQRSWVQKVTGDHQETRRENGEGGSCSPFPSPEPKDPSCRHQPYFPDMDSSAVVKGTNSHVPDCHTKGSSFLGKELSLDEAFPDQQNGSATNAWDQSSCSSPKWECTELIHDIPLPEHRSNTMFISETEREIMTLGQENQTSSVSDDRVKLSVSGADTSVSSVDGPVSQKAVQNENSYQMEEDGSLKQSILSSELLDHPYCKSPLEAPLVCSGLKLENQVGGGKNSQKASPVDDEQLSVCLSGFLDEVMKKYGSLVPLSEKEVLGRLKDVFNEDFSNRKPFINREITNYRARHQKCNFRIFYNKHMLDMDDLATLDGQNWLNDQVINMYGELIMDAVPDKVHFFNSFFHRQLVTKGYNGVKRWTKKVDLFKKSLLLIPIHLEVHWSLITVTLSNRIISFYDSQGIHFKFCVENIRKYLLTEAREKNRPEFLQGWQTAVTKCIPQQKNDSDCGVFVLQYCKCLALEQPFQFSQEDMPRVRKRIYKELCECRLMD
UniProt Q6SZW1: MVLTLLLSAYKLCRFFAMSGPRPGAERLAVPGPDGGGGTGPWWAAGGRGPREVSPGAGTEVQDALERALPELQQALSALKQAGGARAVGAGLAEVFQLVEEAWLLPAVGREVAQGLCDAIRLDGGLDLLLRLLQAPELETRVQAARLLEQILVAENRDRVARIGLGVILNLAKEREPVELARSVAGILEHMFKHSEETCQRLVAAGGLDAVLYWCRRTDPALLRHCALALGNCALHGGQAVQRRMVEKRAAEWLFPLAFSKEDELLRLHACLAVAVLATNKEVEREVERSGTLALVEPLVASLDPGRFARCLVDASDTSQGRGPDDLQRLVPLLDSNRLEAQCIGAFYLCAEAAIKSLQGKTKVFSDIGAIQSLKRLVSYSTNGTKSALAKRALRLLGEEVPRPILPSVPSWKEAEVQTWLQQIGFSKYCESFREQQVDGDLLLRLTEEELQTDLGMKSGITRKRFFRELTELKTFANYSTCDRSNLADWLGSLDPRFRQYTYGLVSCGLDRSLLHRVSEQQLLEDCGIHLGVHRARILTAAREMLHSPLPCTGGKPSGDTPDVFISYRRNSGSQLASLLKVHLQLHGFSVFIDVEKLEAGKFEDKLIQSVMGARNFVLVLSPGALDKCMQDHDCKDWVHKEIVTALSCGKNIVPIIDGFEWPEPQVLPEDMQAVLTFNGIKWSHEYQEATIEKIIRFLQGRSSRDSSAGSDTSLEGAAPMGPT
UniProt Q9NP50: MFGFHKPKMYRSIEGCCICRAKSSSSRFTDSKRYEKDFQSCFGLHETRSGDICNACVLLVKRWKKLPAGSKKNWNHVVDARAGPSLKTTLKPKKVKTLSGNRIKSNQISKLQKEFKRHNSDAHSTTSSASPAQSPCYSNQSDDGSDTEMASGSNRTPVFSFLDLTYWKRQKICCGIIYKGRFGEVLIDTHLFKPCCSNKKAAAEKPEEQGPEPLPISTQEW
UniProt P29353: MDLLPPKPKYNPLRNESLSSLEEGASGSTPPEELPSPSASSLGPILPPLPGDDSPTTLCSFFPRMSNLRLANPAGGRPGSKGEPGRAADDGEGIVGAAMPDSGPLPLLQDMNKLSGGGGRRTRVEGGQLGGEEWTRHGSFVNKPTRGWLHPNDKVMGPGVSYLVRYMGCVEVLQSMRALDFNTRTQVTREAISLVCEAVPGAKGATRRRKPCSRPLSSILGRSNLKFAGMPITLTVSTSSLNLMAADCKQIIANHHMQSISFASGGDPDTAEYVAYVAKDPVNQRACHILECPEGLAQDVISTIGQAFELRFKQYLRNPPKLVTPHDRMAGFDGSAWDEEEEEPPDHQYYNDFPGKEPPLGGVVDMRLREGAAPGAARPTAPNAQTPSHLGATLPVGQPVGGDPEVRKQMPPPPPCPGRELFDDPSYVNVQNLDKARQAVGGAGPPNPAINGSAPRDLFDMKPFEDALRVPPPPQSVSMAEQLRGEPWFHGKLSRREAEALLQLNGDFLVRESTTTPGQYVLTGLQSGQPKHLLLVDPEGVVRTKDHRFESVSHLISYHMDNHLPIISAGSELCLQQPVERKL
UniProt Q86WG5: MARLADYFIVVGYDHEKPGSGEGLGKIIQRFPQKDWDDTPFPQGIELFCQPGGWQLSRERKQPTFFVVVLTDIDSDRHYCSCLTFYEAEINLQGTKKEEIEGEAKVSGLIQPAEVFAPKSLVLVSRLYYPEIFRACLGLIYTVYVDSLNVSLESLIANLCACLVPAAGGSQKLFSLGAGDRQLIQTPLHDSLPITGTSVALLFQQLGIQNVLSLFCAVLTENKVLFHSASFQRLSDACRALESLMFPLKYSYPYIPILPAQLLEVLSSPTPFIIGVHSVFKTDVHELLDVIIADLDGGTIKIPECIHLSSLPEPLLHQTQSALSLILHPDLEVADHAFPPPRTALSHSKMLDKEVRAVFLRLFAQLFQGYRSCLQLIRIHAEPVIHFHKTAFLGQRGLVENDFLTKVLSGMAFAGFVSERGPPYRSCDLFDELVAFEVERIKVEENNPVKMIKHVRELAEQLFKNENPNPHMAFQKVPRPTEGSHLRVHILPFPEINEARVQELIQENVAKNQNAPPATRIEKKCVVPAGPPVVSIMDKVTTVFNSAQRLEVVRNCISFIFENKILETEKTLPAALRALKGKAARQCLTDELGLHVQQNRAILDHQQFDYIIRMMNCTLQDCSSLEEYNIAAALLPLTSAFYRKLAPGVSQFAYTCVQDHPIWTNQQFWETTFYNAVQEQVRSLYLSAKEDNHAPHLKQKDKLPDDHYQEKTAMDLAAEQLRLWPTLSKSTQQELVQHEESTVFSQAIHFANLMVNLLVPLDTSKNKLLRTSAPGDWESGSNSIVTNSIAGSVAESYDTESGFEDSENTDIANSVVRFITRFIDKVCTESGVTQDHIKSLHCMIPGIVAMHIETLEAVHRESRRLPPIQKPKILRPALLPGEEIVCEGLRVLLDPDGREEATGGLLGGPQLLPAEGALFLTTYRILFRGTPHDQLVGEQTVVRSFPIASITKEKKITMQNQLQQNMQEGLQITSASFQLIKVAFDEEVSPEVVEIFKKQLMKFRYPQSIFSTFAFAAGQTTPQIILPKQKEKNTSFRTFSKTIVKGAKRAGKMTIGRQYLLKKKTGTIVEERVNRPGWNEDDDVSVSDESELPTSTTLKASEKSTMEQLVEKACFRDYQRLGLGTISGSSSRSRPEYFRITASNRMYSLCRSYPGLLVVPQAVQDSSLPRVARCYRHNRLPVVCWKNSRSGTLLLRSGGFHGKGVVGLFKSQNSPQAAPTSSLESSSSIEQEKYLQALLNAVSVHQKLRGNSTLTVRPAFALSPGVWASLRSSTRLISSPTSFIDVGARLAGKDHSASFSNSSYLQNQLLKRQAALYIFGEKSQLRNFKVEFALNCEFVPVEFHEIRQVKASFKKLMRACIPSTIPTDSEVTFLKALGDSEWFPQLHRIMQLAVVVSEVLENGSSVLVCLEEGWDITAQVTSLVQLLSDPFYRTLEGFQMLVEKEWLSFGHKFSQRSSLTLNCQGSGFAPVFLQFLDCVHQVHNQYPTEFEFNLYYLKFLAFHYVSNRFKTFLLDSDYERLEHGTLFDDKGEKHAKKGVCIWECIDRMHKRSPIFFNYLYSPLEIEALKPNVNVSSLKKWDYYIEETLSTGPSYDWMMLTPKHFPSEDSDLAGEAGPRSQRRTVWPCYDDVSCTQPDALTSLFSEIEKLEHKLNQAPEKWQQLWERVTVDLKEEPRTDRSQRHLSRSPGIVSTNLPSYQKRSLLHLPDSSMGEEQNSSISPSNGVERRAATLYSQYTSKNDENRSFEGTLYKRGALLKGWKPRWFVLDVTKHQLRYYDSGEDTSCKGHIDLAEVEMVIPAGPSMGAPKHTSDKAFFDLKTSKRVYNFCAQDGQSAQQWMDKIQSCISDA
UniProt Q93073, 880-900: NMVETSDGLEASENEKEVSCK

What was measured:
[1] = compound: ClCC(=O)N[C@@H]1CCCc2ccccc12; assay: log2 mean competition ratio of IA-DTB cysteine labelling (DMSO/compound) (log2 ratio); higher = stronger cysteine engagement by compound; conditions: treatment time: 4 h, cell line lysate: HEK293T
Method: (§1)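 IA-DTB competitive cysteine chemoproteomics in HEK293T RIPA lysate. Lysates were treated with compound 29 or 30 at 50 or 200 µM for 4 h, then IA-DTB (500 µM, 1 h), trypsin-digested, NeutrAvidin-enriched and analysed by diaPASEF. Competition ratio = intensity DMSO / intensity compound (n=4 treated, n=64 DMSO); binding: mean log2 CR ≥ 1 and p ≤ 0.05 plus QC filters. Target is the cysteine site.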

[2] = compound: ClCC(=O)N[C@H]1CCCc2ccccc12; assay: as above; conditions: treatment time: 4 h, cell line lysate: HEK293T
Method: as §1

Target	log2 mean competition ratio ([1]; 50 µM)	log2 mean competition ratio ([1]; 200 µM)	log2 mean competition ratio ([2]; 50 µM)	log2 mean competition ratio ([2]; 200 µM)
SEC13 C187 (UniProt P55735)	-0.0412	-0.114		
SANBR C478	0.349	0.253		
SATB2 C159 (UniProt Q9UPW6)	-0.0371	-0.277		
SETD7 C200 (UniProt Q8WTS6)	0.294	0.119		
SASH1 C799 (UniProt O94885)		0.286		
SENP6 C833 (UniProt Q9GZR1)	0.0899	0.245		
SEC31A C1130	-0.162	-0.13		
SDAD1 C87 (UniProt Q9NVU7)	-0.0562	0.0688		
SELENOO C219 (UniProt Q9BVL4)	0.159	0.00184		
SIK2 C426 (UniProt Q9H0K1)	-0.349	-0.276		
SESN1 C355 (UniProt Q9Y6P5)	0.256	0.0464		
SEPHS2 C10 (UniProt Q99611)	0.0159	-0.285		
SGSM3 C448 (UniProt Q96HU1)	-0.215	0.494		
SALL3 C603	0.0133	-0.278		
SF3B3 C1156 (UniProt Q15393)	-0.0575	-0.325		
SIPA1L2 C1054 (UniProt Q9P2F8)	0.365	0.243		
SETX C2006 (UniProt Q7Z333)	0.336	-0.287		
SCFD2 C54 (UniProt Q8WU76)	0.26	0.045		
SEC24D C853 (UniProt O94855)	0.045	-0.114		
SEC23B C434 (UniProt Q15437)	-0.406	-0.119		
SAP30BP C127 (UniProt Q9UHR5)	0.128	0.28		
SENP5 C473 (UniProt Q96HI0)	-0.0419	0.121		
SF3B3 C1054 (UniProt Q15393)	0.397	-0.266		
SEPTIN2 C111	-0.367	0.0298		
SDCCAG8 C236	-0.269	0.0749		
SBDS C119 (UniProt Q9Y3A5)	0.000362	-0.322		

Target	log2 mean competition ratio ([1]; 50 µM)	log2 mean competition ratio ([1]; 200 µM)	log2 mean competition ratio ([2]; 50 µM)	log2 mean competition ratio ([2]; 200 µM)
SARM1 C311 (UniProt Q6SZW1)	0.958	0.44		
SGSM3 C454 (UniProt Q96HU1)	-0.0126	-0.2		
SGPP1 C27 (UniProt Q9BX95)	0.123	-0.411		
SAMD1 C383 (UniProt Q6SPF0)	0.392	-0.00984		
SENP7 C316 (UniProt Q9BQF6)	-0.148	-0.384		
SHPK C132 (UniProt Q9UHJ6)	-0.13	-0.0776		
SETD5 C1050	-0.0299	-0.0901		
SINHCAF C41 (UniProt Q9NP50)	0.166	0.19		
SELENOO C364 (UniProt Q9BVL4)	-0.0834	-0.235		
SEL1L C539 (UniProt Q9UBV2)	0.306	-0.111		
SAE1 C214	0.0116	-0.113		
SHCBP1 C353 (UniProt Q8NEM2)	0.36	0.0426		
SETD1A C1514 (UniProt O15047)	0.129	-0.0345	-0.146	-0.0727
SARM1 C649 (UniProt Q6SZW1)	0.434	0.175		
SETX C688 (UniProt Q7Z333)	0.0458	0.319		
SIN3A C910 (UniProt Q96ST3)	-0.22	0.0292		
SASS6 C94 (UniProt Q6UVJ0)	-0.201	-0.103		
SHMT2 C91	0.269	0.0331		
SFMBT1 C511	-0.132	0.0798		
SHB C204 (UniProt Q15464)	-0.0398	-0.00347	0.607	0.00451
SASH1 C1120 (UniProt O94885)	0.159	0.0446		
SENP7 C274 (UniProt Q9BQF6)	-0.134	-0.0887	-0.17	-0.0221
SF3A1 C244 (UniProt Q15459)	-0.0499	-0.26	0.173	-0.161
SHC1 C196 (UniProt P29353)	-0.427	-0.237		
SIPA1L3 C620	-0.152	0.108	-0.383	
SF1 C279	-0.185	0.0671		

Nothing new here: entries from further up.
Target	log2 mean competition ratio ([1]; 50 µM)	log2 mean competition ratio ([1]; 200 µM)	log2 mean competition ratio ([2]; 50 µM)	log2 mean competition ratio ([2]; 200 µM)
SEC23B C434 (UniProt Q15437)	-0.406	-0.119		
SAP30BP C127 (UniProt Q9UHR5)	0.128	0.28		
SENP5 C473 (UniProt Q96HI0)	-0.0419	0.121		

Further records follow:

Target	log2 mean competition ratio ([1]; 50 µM)	log2 mean competition ratio ([1]; 200 µM)	log2 mean competition ratio ([2]; 50 µM)	log2 mean competition ratio ([2]; 200 µM)
SEPTIN5 C300	-0.0303	-0.317		
SETDB1 C53 (UniProt Q15047)	-0.117	0.285		
SFXN2 C290 (UniProt Q96NB2)	-0.112	0.13		
SH3RF3 C194	0.0718	0.263		
SBNO1 C626 (UniProt A3KN83)	0.113	0.000689		
SFR1 C198 (UniProt Q86XK3)	-0.0817	-0.276		
SBF2 C525 (UniProt Q86WG5)	-0.084	-0.342		-0.153
SCAPER C71 (UniProt Q9BY12)	-0.362	0.101		
SHMT1 C68	0.175	-0.0465		
SFSWAP C220 (UniProt Q12872)	-0.0518	-0.17		
SCARF2 C122	-0.33	0.412	-0.153	0.602
SH3BP5L C201 (UniProt Q7L8J4)	0.072	0.109		
SEH1L C49 (UniProt Q96EE3)	-0.0645	0.198		-0.198
SBDS C31 (UniProt Q9Y3A5)	-0.0136	-0.188		
SENP5 C288 (UniProt Q96HI0)	-0.16	0.302		
SECISBP2L C899 (UniProt Q93073)	-0.0138	-0.173	0.689	-0.0518
SIRT7 C282	0.2	-0.0249		-0.00213
SCAF1 C362 (UniProt Q9H7N4)	-0.225	0.17		
SHPRH C688 (UniProt Q149N8)	0.0883	-0.251	0.184	0.223
SIK3 C655	-0.344	0.283		
SAFB2 C672	-0.168	0.0756		
SENP5 C326 (UniProt Q96HI0)	0.376	0.0774	0.0196	-0.163
SENP2 C283 (UniProt Q9HC62)	0.0838	0.235	0.137	0.216
SARM1 C482 (UniProt Q6SZW1)	0.299	0.0392	-0.0271	-0.0098
